# Data as given in publication PMC10626543.
# Sequences of proteins named here, by UniProt entry; tags and fusion partners are left off. Residues count along the entry.
# UniProt P48678, residues 1-647: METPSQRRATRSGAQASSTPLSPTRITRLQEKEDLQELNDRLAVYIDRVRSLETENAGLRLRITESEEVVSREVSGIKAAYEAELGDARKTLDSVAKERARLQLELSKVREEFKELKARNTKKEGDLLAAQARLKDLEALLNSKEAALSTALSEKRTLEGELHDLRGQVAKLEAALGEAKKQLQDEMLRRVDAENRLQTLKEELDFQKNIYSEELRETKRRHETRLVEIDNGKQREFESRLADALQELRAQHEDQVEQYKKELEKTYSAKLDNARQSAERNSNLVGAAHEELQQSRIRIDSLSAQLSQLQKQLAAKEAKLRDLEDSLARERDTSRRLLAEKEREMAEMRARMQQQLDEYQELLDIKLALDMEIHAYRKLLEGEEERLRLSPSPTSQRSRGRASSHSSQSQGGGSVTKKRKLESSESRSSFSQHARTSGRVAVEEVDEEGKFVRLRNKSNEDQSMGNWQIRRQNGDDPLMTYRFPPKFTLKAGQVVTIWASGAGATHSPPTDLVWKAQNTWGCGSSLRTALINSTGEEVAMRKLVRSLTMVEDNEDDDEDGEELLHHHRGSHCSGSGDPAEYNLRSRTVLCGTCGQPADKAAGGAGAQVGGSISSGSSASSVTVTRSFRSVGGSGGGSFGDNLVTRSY
# These are yes or no findings as the source states them, for the method shown. In cells and extracts the contact can be indirect. A yes stands for co-enrichment or nearness to the bait. Other partners may have been found.
# B1: Sorbin and SH3 domain-containing protein 1 (protein, UniProt Q62417 1-1290)
# chain: MSSECDVGSSKAVVNGLASGNHGPDKDMDPTKICTGKGTVTLRASSSYRGTPSSSPVSPQESPKHESKSGLEPEDPSADEWKLSSSADTNGNAQPSPLAAKGYRSVHPSLSADKPQGSPLLNEVSSSHIETDSQDFPPTSRPSSAYPSTTIVNPTIVLLQHNRDPASERRAGEQDPVPTPAELTSPGRASERRAKDASRRVVRSAQDLSDVSTDEVGIPLRNTERSKDWYKTMFKQIHKLNRDDDSDVHSPRYSFSDDTKSPLSVPRSKSEMNYIEGEKVVKRSATLPLPARSSSLKSSPERNDWEPLDKKVDTRKYRAEPKSIYEYQPGKSSVLTNEKMSRDISPEEIDLKNEPWYKFFSELEFGRPTNLEKDLSFCQAELEADLEKVETVNKSPSANSPQSSAVSPTPDITSEPPGYIYSSNFHAVKRESDGTPGGLASLENERQIYKSVLEGGDIPLQGLSGLKRPSSSASTKVDRKGGNAHMISSSSVHSRTFHTSNALGPGCKHKKPLSAAKACISEILPSKFKPRLSAPSALLQEQKSVLLPSEKAQSCENLCVSLNDSKRGLPLRVGGSIENLLMRSRRDYDSKSSSTMSLQEYGTSSRRPCPLSRKAGLHFSMFYRDMHQINRAGLSLGSISSSSVRDLASHFERSSLTLARGELGASQEGSEHIPKHTVSSRITAFEQLIQRSRSMPSLDFSGRLSKSPTPVLSRSGLTSARSAESLLESTKLRPREMDGMDSGGVYASPTCSNMADHALSFRSLVPSEPLSICSDELDHCSNVSNDSREGSGGSVHGDFPKHRLNKCKGTCPASYTRFTTIRKHEQQSSRQSDWRSDSRGDKNSLLRNIHLMSPLPFRLKKPLQQHPRQPPPSDSSESPAGQKADLPCHDPQDQPHSAGKPQVPTRLSSRHTMARLSHNSEPPLDRPAGLEDCTRAINNGNPVPYSDHGLDRNNNPQSELAAAHGDSESPRHFIPADYLESTEEFIRRRHDDKEKLLADQRRLKREQEEADIAARRHTGVIPTHHQFITNERFGDLLNIDDTAKRKSGLEMRPARAKFDFKAQTLKELPLQKGDVVYIYRQIDQNWYEGEHHGRVGIFPRTYIELLPPAEKAQPRKLAPVQVLEYGEAIAKFNFNGDTQVEMSFRKGERITLLRQVDENWYEGRIPGTSRQGIFPITYVDVLKRPLVKTPVDYIDLPYSSSPSRSATVSPQQPQAQQRRVTPDRSQPSLDLCSYQALYSYVPQNDDELELRDGDIVDVMEKCDDGWFVGTSRRTRQFGTFPGNYVKPLYL
# B2: EH domain-containing protein 2 (protein, UniProt Q8BH64 1-543)
# chain: MFSWLKKGGARGQRPEAIRTVTSSLKELYRTKLLPLEEHYRFGSFHSPALEDADFDGKPMVLVAGQYSTGKTSFIQYLLEQEVPGSRVGPEPTTDCFVAVMHGETEGTVPGNALVVDPEKPFRKLNPFGNTFLNRFMCAQLPNQVLESISIIDTPGILSGAKQRVSRGYDFPAVLRWFAERVDLIILLFDAHKLEISDEFSEAIGALRGHEDKIRVVLNKADMVETQQLMRVYGALMWALGKVVGTPEVLRVYIGSFWSQPLLVPDNRRLFELEEQDLFRDIQGLPRHAALRKLNDLVKRARLVRVHAYIISYLKKEMPTVFGKENKKKQLILKLPVIFAKIQLEHHISPGDFPDCQKMQELLMAHDFTKFHSLKPKLLEALDDMLAQDIAKLMPLLRQEELESVEAGVQGGAFEGTRMGPFVERGPDEAIEDGEEGSEDDAEWVVTKDKSKYDEIFYNLAPADGKLSGSKAKTWMVGTKLPNSVLGRIWKLSDVDRDGMLDDEEFALASHLIEAKLEGHGLPTNLPRRLVPPSKRRQKGSAE
# B3: ADP/ATP translocase 2 (protein, UniProt P51881 1-298)
# chain: MTDAAVSFAKDFLAGGVAAAISKTAVAPIERVKLLLQVQHASKQITADKQYKGIIDCVVRIPKEQGVLSFWRGNLANVIRYFPTQALNFAFKDKYKQIFLGGVDKRTQFWRYFAGNLASGGAAGATSLCFVYPLDFARTRLAADVGKAGAEREFKGLGDCLVKIYKSDGIKGLYQGFNVSVQGIIIYRAAYFGIYDTAKGMLPDPKNTHIFISWMIAQSVTAVAGLTSYPFDTVRRRMMMQSGRKGTDIMYTGTLDCWRKIARDEGSKAFFKGAWSNVLRGMGGAFVLVLYDEIKKYT
# B4: Cullin-associated NEDD8-dissociated protein 2 (protein, UniProt Q6ZQ73 1-1235)
# chain: MSTGAFYISSLLEKMTSSDKDFRFMATSDLMSELQKDSIQLDEDSERKVVRTLLRLLEDRSGEVQNLAVKCLGPLVGKVKEYQVENIVDTLCANMRSDKEQLRDIAGIGLKTVLSELPPAATGSGLAINVCRKITGQLTSAIAQQEDVAVQLEALDILSDMLSRLGAPLGTFHASLLHCLLPQLSSPRLAVRKRTVVALGHLAAACSTDLFVELADHLVDRLPGPRAPASPAAIRTLIQCLGSVGRQAGHRLGAHLDRLVPMVEEFCNLDDDELRESCLQAFEAFLRKCPKEMDPHVPNVTSLCLQYMKHDPNYDHDSDDEEQMETEDSEFSEQESEDEYSDDDDMSWKVRRAAAKCMAALISSRPDLLPDFHCTLAPALIRRFKEREENVKADIFGAYIMLLRHTRPPKGWLEAVEEPTQTGRNLNMLRAQVPLVIKALQRQLKDRNVRTRQGCFNLFTELAGVLPGSLAEHMAVLVSGIVFSLADYSSSSTIRMDALAFLQGLLGTEPAEAFHPHLPTLLPPVMACVADPFYKVAAEALLVLQELVRTLWPLDRPRLLDPEPYVGEMSTATLARLRATDLDQEVKERAISCVGHLVGHLGDRLGDDLEPTLMLLLDRLRNEITRLPAVKALTLVAMSPLRLDLQPILAEALPILASFLRKNQRALRLATLAALDALAQSQGLGLPPPAVRTVLTELPALVSENDMHVAQLAVDFLTTVTQTQPSSLVEVSGPVLGELLQLLHSPLLPAGVLAATEGFLQALVGTRPPCVEYSELISLLTAPVYNQVGDGGPGLHKQVFHSLARCVAALSAACPQEAAGTASRLVCDAKSPHSSTGVKVLAFLSLAEVGQVAGPGPQRELKTVLLEALGSPSEDVRAAAAYALGRVGAGNLPDFLPFLLAQIEAQPRRQYLLLHALREALGAAQPDNLKPYVEDVWALLFQRCESPEEGTRCVVAECIGKLVFVNPPYLLPRFRKQLAAGQPYTRSTVITAVKFLISDQPHSIDPLLKSFIAEFMESLQDPDLNVRRATLTFFNSAVHNKPSLVRDLLDDILPLLYQETKIRRDLIREVEMGPFKHTVDDGLDVRKAAFECMYSLLESCLGQLDMCEFLNHVEDGLKDHYDIRMLTFIMLARLATLCPAPVLQRVDRLIEPLRATCTAKVKAGSVKQELEKQEELKRSAMRAVAALLTNPEVRKSPTVADFSAQIRSNPELTTLFESIQKDTASGPSTDSMELS
# B5: HHATL (protein-cysteine N-palmitoyltransferase HHAT-like protein) (protein, UniProt Q9D1G3 1-503)
# chain: MGIKTALPAAELGLYSLVLSGALAYAGRGLLEASQDGAHRKAFRESVRPGWEYLGRKMDVADFEWVMWFTNFRNVIVFALSGHVLFAKLCTMVAPQLRSWMYAVYGVLAVVGTMGPWYLLLLLGHCMVLYVASLLGQRWLCLALGLASLASFKVDPGISWQSGFVTGTFDLQDVLFHGGSSFTVLRCTSFALESCAHPDRRYSLADLLKYNFYLPFFFFGPIMTFDRFHAQVSQEPVRPEGELWHIQAQAGLSAAAIVAVDVFFHFFYILTIPSDLKFASRLPDSALAGLAYSNLVYDWVKAAVLFGVVNTVARLDHLDPPQPPKCITALYVFGETHFDRGINDWLCKYVYDHIGGDHSTVIPELAASVATFVVTTLWLGPCDIVYLWSVLNCFGLNFELWVQKLAERGPLAQIEARLSEQMSRRVRALCGAVNFWAIIMYNLVSLNSLEFTELVARRLILTGFPQTTLAVLFVTYCGVQLVKERERSLALEEEQRQDREKLE
# B6: Cpt1B (carnitine O-palmitoyltransferase 1) (protein, UniProt Q924X2 1-772)
# chain: MAEAHQAVAFQFTVTPDGVDFRLSREALRHIYLSGINSWKKRLIRIKNGILRGVYPGSPTSWLVVVMATVGSNYCKVDISMGLVDCIQRCLPERYGHFGTPQTEALLSMVIFSTGVWATGIFFFRQTLKLLLSYHGWMFEMHSKTSHATKIWAICVRLLSSRRPMLYSFQTSLPKLPVPSVPATIHRYLDSVRPLLDDEAYYRMETLAKEFQDKTAPRLQKYLVLKSWWATNYVSDWWEEYVYLRSRSPLMVNSNYYAMDFVLIKNTNVQAARLGNAVHAMIMYRRKLDREEIKPVMALGMVPMCSYQMERMFNTTRIPGKETDLLQHLSESRHVAVYHKGRFFKVWLYEGSRLLKPRDLEMQFQRILDDPSPPQPGEEKLAALTAGGRVEWAEARQTFFSSGKNKMSLDAIERAAFFVTLDEDSHCYNPDDETSLSLYGKALLHGNCYNRWFDKSFTLISCKNGLLGLNTEHSWADAPIIGHLWEFVLGTDTFHLGYTETGHCVGEPNTTLPPPQRLPWDIPEQCREAIENSYQVAKALADDVELYCFQFLPFGKGLIKKCRTSPDAFVQIALQLAHFRDKGKFCLTYEASMTRMFREGRTETVRSCTNESAAFVQAMMKGSHKKQDLQDLFRKASEKHQNMYRLAMTGAGIDRHLFCLYIVSKYLGVSSPFLAEVLSEPWSLSTSQIPQFQICMFDPKQYPNHLGAGGGFGPVADDGYGVSYMIAGENTMFFHISSKYSSSETNAQRFGNHIRQALLDIAELFKISKTDS
# B7: Myl6 (myosin light chain 6) (protein, UniProt Q60605 1-151)
# chain: MCDFTEDQTAEFKEAFQLFDRTGDGKILYSQCGDVMRALGQNPTNAEVLKVLGNPKSDEMNVKVLDFEHFLPMLQTVAKNKDQGTYEDYVEGLRVFDKEGNGTVMGAEIRHVLVTLGEKMTEEEVEMLVAGHEDSNGCINYEAFVRHILSG
# B8: Pygb (glycogen phosphorylase, brain isoform) (protein, UniProt Q8CI94 1-843)
# chain: MAKPLTDSERQKQISVRGIAGLGDVAEVRKSFNRHLHFTLVKDRNVATPRDYFFALAHTVRDHLVGRWIRTQQHYYERDPKRIYYLSLEFYMGRTLQNTMVNLGLQTACDEATYQLGLDLEELEEIEEDAGLGNGGLGRLAACFLDSMATLGLAAYGYGIRYEFGIFNQKIVNGWQVEEADDWLRYGNPWEKARPEYMLPVHFYGRVEHTPDGVLWLDTQVVLAMPYDTPVPGYKNNTVNTMRLWSAKAPNDFKLKDFNVGDYIEAVLDRNLAENISRVLYPNDNFFEGKELRLKQEYFVVAATLQDIIRRFKSSRFGCRDPVRTCFETFPDKVAIQLNDTHPALSIPELMRILVDVEKVDWDKAWEITKKTCAYTNHTVLPEALERWPVSMFEKLLPRHLEIIYAINQRHLDHVAALFPGDVDRLRRMSVIEEGDCKRINMAHLCVIGSHAVNGVARIHSEIVKQSVFKDFYELEPEKFQNKTNGITPRRWLLLCNPGLAEIIVERIGEGFLTDLSQLKKLLSLVDDEAFIRDVAKVKQENKLKFSAQLEKEYKVKINPASMFDVHVKRIHEYKRQLLNCLHIITLYNRIKKDPAKAFVPRTVMIGGKAAPGYHMAKMIIKLVTSIGDVVNHDPVVGDRLRVIFLENYRVSLAEKVIPAADLSQQISTAGTEASGTGNMKFMLNGALTIGTMDGANVEMAEEAGEENLFIFGMRVEDVEALDQKGYNAREFYERLPELRQAVDQISSGFFSPKDPDCFKDVVNMLMYHDRFKVFADYEAYIQCQAQVDRLYRNSKEWTKKVIRNIACSGKFSSDRTITEYAREIWGVEPSDLQIPPPNLPKD
# B9: Gins3 (mouse) (protein, UniProt Q9CY94 1-216)
# chain: MSEAYFPVESGALGPEENFLSLDDILMSQEKLPVRVETPMPRLGAFFLERGAGSEPDHPLPQGTKLELPLWLAKGLFDHKRRILSVELPKMYQEGWRTVFSADANVVDLHKMGPHFYGFGSQLLHFDSPENADISQSLLKTFIGRFRRIMDSSQNSYNEDTSALVARLDETERGLFQIGQRSLNDFQSWEKGQASQITASSLVQNYKKRKFTNMED
# Biological target: native lamin A/C (mouse (endogenous in heart, skeletal muscle and brain)) (UniProt P48678)
# Test: affinity purification with mass spectrometry; native lamin A/C immunoprecipitated with mAb 4C11 and Protein G Sepharose from sonicated heart lysates of old IL10-KO and control C57Bl/6 female mice (five each); 50 mM Tris pH 7.4, 300 mM NaCl, 0.3% Triton X-100, 4°C; TMT 10-plex
row,Binder,binding
1,B1,binds
2,B2,binds
3,B3,binds
4,B4,binds
5,B5,binds
6,B6,binds
7,B7,binds
8,B8,binds
9,B9,binds
